Test results from article PMC8834445.
Results are given in words; binding and its absence hold for the method and conditions named. Binding seen in cells or lysates may run through a third protein. Some binding calls cover weakened binding; strength is not graded here. For some of these results: Sequences can lack the tags named with a protein.

Chains of the proteins cited; added tags and fusions are not shown. Lines headed by an entry give the natural chain unless they say otherwise; changes in a name come on top.
UniProt O94874: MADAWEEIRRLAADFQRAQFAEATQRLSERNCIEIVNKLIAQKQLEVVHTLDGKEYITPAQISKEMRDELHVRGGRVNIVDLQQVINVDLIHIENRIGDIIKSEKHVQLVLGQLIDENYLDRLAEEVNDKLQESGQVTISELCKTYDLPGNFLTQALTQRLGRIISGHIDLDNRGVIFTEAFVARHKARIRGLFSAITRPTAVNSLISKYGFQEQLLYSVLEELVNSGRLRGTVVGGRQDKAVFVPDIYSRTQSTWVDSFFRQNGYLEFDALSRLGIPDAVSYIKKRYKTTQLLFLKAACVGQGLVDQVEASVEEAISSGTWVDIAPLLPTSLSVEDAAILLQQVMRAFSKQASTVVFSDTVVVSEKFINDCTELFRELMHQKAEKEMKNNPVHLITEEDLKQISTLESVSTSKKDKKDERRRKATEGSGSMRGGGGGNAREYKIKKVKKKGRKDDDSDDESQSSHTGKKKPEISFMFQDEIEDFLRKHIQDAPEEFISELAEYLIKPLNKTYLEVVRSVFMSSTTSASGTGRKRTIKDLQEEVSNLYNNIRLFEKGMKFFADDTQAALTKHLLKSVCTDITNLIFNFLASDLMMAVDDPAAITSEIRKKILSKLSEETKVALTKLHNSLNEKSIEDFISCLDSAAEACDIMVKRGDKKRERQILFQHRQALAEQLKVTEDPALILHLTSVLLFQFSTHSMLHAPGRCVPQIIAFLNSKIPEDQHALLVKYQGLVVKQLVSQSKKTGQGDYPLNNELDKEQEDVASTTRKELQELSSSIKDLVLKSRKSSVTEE
UniProt Q9UGJ1: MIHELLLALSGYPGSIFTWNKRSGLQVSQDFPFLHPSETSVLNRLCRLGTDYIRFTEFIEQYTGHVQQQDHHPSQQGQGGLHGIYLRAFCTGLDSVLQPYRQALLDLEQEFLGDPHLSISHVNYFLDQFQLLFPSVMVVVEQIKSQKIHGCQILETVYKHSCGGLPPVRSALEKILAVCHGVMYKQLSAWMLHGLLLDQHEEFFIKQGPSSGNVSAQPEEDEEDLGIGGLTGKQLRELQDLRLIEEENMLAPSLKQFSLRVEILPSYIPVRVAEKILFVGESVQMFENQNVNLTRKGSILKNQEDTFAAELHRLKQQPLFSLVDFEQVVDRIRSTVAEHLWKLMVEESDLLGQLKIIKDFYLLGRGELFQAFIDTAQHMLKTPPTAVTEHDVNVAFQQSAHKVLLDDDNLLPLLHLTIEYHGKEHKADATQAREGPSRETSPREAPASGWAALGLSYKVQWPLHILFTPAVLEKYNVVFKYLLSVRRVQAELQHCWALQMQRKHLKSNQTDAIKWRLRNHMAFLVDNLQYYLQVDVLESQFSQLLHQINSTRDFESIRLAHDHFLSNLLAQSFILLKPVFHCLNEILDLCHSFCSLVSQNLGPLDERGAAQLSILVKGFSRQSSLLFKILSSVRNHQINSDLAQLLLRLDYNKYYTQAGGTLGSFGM
UniProt Q9BSJ2: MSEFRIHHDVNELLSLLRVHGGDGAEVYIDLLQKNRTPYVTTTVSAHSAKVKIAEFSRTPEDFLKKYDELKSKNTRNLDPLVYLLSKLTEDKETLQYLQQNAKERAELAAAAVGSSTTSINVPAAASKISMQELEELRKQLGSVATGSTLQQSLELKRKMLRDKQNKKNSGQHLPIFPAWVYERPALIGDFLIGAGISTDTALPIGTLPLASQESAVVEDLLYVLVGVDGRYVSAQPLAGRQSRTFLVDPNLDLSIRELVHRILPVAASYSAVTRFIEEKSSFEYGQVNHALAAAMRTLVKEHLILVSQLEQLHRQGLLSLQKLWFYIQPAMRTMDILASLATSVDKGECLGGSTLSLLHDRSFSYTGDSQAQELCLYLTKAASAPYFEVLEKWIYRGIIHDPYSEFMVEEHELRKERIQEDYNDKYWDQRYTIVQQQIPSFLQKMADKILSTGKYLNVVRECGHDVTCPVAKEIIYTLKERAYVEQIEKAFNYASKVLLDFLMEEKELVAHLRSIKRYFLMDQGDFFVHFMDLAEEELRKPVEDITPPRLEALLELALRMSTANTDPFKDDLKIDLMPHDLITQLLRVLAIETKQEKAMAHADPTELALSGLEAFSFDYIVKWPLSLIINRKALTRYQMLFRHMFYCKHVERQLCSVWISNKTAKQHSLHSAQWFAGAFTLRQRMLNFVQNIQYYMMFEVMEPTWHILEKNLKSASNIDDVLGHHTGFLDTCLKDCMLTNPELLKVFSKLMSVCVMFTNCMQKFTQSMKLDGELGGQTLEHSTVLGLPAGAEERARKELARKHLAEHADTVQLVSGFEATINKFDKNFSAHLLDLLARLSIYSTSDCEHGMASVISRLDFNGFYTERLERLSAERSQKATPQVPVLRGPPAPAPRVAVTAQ
UniProt Q96RT7: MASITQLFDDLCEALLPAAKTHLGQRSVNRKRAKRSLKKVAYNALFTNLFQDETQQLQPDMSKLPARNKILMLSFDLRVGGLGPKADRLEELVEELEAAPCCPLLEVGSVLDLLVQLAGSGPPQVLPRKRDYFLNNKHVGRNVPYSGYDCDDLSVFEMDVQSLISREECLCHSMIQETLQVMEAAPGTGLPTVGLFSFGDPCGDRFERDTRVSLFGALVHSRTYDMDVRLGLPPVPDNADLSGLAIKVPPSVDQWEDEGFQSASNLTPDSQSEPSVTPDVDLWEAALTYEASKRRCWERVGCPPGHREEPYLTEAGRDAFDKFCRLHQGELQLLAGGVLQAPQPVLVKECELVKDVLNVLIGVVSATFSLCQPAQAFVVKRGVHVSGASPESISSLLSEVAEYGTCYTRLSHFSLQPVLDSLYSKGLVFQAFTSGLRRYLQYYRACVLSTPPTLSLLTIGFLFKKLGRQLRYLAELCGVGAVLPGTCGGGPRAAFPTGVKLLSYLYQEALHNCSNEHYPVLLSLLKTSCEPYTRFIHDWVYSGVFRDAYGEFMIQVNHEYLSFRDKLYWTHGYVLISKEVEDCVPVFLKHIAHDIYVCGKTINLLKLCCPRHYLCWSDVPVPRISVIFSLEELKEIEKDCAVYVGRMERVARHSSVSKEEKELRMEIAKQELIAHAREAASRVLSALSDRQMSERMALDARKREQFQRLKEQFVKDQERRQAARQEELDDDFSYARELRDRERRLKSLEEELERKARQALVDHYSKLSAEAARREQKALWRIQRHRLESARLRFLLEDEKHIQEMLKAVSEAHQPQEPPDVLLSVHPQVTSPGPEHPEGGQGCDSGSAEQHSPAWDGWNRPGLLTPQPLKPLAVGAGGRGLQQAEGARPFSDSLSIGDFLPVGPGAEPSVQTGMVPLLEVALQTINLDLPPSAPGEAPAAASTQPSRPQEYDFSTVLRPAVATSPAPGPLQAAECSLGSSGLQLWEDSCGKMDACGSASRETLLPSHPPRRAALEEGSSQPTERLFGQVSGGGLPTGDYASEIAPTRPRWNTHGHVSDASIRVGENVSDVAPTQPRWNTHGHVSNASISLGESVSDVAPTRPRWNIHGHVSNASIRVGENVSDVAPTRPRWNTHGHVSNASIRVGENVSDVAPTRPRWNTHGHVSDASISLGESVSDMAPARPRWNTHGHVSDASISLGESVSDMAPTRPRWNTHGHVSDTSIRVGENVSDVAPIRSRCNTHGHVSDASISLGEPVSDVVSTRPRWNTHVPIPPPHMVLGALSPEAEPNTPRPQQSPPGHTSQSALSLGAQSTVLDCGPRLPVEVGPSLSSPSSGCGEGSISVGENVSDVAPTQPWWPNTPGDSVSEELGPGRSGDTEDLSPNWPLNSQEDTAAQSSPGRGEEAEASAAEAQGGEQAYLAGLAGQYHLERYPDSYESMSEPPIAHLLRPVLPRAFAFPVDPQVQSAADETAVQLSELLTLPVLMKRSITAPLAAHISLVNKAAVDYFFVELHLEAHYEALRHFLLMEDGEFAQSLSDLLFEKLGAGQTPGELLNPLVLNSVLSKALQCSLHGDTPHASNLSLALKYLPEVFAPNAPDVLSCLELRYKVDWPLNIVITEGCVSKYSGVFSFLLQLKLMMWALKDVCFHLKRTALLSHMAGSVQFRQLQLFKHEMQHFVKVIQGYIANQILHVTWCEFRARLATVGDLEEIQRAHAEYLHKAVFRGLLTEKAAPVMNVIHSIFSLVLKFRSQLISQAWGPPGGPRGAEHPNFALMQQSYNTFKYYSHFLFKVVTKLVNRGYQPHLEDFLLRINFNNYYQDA

Columns and labels:
[1] = target: C-terminally EGFP-tagged human CDK5RAP3 (C53) (human) (UniProt Q96JB5); experiment: co-IP; extracts of U2OS cells expressing EGFP-UFL1, C53-EGFP or EGFP alone; precipitated with Ab to GFP or, reciprocally, Ab to γ-tubulin; immunoblot
[2] = target: N-terminally EGFP-tagged human UFL1 (human) (UniProt O94874); experiment: as above
[3] = target: CDK5 regulatory subunit-associated protein 3 (C53), endogenous human (human (endogenous in U2OS and T98G)) (UniProt Q96JB5); experiment: co-IP; extracts from the crude membranous fraction (P2) of U2OS cells; protein A beads with Abs to UFL1 (301-389 or 438-793), C53, γ-tubulin (TU-31) or GCP2; immunoblot
[4] = target: E3 UFM1-protein ligase 1 (UFL1), endogenous human (human (endogenous in U2OS and T98G)) (UniProt O94874); experiment: as above
[5] = target: N-terminally GST-tagged full-length UFL1 (aa 1-794) (human) (UniProt O94874); experiment: pull-down; immobilised GST-tagged UFL1, C53 or γ-tubulin, or GST alone, incubated with whole-cell extracts (1% NP-40 in HEPES buffer); immunoblot; only the target purified
[6] = target: N-terminally GST-tagged full-length human CDK5RAP3 (C53) (human) (UniProt Q96JB5); experiment: as above

Measured: binding

γ-tubulin complex protein 4 (GCP4), endogenous human (from UniProt Q9UGJ1 1-667)
binds: [1] | [2] | [3] | [4]

γ-tubulin complex protein 2 (GCP2), endogenous human (from UniProt Q9BSJ2 1-902)
binds: [5] | [6] | [1] | [2]

γ-tubulin complex protein 6 (GCP6), endogenous human (from UniProt Q96RT7 1-1819)
binds: [1] | [2]
